Earlier results, collected in patent publication US8748395B2, “Cell-permeable peptide inhibitors of the JNK signal transduction pathway” (Xigen Inflammation Ltd., priority 2006, dated 2014).
For at least one compound, name, drawing or mass did not settle the structure.

Tested on: C57BL/6N mice
Conditions: mouse, in vivo; cited from earlier work

In the case of `Oc1c2ccccc2c2c3c(cccc13)N=N2` [SP600125], the “effects in MPTP-induced PD” value is given as “reduce the levels of c-Jun phosphorylation, to protect dopaminergic neurons from apoptosis, and to partly restore the level of dopamine”.
